Results of single-concentration screens

By UniProt entry, the sequences of proteins in these tests, tags left out. Residues count along the entry.
UniProt P9WFT3, whole entry: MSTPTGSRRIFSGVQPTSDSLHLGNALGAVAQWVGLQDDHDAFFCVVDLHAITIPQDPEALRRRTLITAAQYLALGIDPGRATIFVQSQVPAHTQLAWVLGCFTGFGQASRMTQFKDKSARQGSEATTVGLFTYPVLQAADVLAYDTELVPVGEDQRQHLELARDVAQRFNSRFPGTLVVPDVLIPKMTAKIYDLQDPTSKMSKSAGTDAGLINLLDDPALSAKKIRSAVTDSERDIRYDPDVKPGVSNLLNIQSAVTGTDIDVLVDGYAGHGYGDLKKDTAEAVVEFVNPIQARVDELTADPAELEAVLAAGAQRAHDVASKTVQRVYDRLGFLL
UniProt P9WNZ1, whole entry: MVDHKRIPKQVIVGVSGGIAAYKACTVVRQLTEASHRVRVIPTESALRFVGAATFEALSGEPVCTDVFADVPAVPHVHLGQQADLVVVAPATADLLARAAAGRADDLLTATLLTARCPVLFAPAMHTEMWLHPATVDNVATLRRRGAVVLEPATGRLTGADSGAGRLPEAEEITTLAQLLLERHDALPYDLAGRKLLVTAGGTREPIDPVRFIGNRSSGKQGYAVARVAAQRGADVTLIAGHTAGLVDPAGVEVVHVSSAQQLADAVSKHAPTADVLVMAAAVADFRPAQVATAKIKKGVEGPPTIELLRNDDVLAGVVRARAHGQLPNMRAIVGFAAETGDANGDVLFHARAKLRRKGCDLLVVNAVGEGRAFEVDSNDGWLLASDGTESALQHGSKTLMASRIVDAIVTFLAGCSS
UniProt A4I591, 1-473: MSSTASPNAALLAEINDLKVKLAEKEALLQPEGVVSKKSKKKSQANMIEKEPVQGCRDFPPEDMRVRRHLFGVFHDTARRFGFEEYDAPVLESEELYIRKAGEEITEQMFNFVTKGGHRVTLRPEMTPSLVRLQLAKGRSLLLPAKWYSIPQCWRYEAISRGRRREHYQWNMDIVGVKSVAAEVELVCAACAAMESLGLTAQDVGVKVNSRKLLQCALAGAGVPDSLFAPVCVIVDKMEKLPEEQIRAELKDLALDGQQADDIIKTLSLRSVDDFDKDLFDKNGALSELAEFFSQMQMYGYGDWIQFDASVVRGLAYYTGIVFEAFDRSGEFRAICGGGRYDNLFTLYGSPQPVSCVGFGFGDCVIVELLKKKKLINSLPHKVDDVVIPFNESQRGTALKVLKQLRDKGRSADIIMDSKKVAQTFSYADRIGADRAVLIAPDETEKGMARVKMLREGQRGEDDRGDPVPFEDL
UniProt I6X8D2, whole entry: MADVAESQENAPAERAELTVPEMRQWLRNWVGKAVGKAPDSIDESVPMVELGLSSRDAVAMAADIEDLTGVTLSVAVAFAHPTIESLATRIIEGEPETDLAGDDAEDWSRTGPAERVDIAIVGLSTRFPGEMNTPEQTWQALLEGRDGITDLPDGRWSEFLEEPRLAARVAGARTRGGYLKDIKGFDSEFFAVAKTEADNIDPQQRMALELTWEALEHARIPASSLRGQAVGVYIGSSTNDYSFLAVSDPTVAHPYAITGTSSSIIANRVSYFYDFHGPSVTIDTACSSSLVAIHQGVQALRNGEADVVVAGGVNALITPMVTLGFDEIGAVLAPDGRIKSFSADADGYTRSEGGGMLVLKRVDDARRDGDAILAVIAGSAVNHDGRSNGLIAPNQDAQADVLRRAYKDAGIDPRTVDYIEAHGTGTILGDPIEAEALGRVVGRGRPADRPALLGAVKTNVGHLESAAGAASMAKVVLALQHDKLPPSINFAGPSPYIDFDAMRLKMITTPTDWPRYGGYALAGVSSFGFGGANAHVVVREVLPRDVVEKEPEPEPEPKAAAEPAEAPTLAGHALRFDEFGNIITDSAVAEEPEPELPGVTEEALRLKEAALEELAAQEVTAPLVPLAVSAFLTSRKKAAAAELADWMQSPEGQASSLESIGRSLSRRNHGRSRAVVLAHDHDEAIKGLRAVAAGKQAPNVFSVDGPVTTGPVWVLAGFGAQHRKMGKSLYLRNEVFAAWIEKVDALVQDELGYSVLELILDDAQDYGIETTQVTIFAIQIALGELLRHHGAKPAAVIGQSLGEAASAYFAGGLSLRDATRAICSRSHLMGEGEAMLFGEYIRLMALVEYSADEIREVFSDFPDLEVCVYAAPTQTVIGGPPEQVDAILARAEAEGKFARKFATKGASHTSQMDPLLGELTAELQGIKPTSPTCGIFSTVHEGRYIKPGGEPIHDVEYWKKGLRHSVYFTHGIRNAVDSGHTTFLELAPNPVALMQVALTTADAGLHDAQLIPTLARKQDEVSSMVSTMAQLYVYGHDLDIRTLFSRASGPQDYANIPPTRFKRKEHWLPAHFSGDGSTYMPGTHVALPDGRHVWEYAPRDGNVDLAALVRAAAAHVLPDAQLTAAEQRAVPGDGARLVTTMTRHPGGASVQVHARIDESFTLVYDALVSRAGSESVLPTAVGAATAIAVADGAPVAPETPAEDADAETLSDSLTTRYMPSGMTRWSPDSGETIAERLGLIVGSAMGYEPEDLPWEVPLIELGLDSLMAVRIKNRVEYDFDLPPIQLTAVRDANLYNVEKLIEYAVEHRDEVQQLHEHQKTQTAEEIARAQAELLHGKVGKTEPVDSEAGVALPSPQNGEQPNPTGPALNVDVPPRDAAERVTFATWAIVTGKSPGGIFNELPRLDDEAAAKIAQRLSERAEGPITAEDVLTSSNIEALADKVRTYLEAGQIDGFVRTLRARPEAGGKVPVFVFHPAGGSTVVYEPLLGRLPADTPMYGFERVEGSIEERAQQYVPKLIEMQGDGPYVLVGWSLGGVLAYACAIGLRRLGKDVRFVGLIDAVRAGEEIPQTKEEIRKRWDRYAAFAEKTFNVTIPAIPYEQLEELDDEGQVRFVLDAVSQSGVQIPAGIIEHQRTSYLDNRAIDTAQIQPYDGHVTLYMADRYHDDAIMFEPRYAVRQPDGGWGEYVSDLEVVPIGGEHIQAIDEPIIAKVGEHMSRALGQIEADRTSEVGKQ

From ChEMBL document CHEMBL3988442, “University of Dundee, Small-Polar-MMV Screening Library” (2021).

MtTrpRS: 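Tryptophan-tRNA ligase, Mycobacterium tuberculosis (UniProt P9WFT3). Enzyme assay of tryptophanyl-tRNA synthetase; the read-out is not stated. Concentration: 10 µM. Higher most likely means stronger inhibition; the record gives no direction and few retests gave an IC50. Of about 65,000 compounds tested this way, about 64 (0.098%) reached 50% or more in at least one test.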
CoaBC: 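Coenzyme A biosynthesis protein CoaBC, Mycobacterium tuberculosis (UniProt P9WNZ1). Enzyme assay of CoaBC with a phosphate dye (Biomol Green) read at 650 nm. Concentration: 30 µM. Direction is inferred from only a few compounds that gave an IC50; most scored high, so higher reads as stronger inhibition. Most strong results did not repeat in a second test. Size under these conditions: about 67,000 compounds, about 40 of them at 50% or above in at least one test.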
LiHisRS: 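Histidine-tRNA ligase, Leishmania infantum (UniProt A4I591). Enzyme assay of histidyl-tRNA synthetase; the read-out is not stated. Compounds at 30 µM. The record gives no direction; compounds that gave an IC50 in retests scored well above the rest, so higher reads as stronger inhibition. The assay is labelled LdHisRS but filed under L. infantum. About 69,000 compounds were tested under these conditions; 0.6% (about 410) showed 50% or more at least once.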
Pks13 thioesterase: 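Enzyme assay of the thioesterase domain of polyketide synthase 13; the read-out is not stated. Target: Polyketide synthase Pks13, Mycobacterium tuberculosis (UniProt I6X8D2). Compounds at 30 µM. The record gives no direction; the compounds picked for IC50 retests had high values, so higher reads as stronger inhibition. About 67,000 compounds were tested under these conditions; 0.46% (about 300) showed 50% or more at least once.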

The filed quantity is “Percent Effect” (%).
The record does not define 0% and 100%; most values in the screen are far below 50% and negative numbers occur (in some assays of this library far below -100).
The compounds are a random part of those screened.
Two or more numbers in one place are separate tests of the same structure; such repeats can differ widely.
A dash means the value is not listed here; it may have been measured.

structure | MtTrpRS | CoaBC | LiHisRS | Pks13 thioesterase
CCCc1nc(C)cc(N2CCNC(C(=O)NCc3cccnc3)C2)n1 (centres unmarked) | 5.393% | 3.97% | 12.77% | 12.51%
CN(C)CC1(O)CCN(C(=O)c2cnc(CN3CCCC3)s2)C1 (centres unmarked) | -1.12% | -4.668% | 19.84% | 18.49%
O=C(NCC(O)c1cccs1)c1cccc(Cl)c1 (centres unmarked) | -0.9266% | 7.463% | 25% | -
Cn1cnnc1C1CCCN(C(=O)NCc2ccccn2)C1 (centres unmarked) | 36.11% | 3.584% | 11.54% | -22.53%
Cc1cc(C(=O)N2CCCC(n3cncn3)C2)on1 (centres unmarked) | 0.1704% | -10.19% | -58.12% | -21.67%
Cc1cnc(C)c(N2CCN(CCCc3ccncc3)CC2)n1 | 1.511% | 5.4% | 22.86% | 0.8885%
COCC(=O)N1CCC(=O)N(C2CCCC2)Cc2cc(F)ccc21 | - | 0% | 12.24% | -10.35%
CCS(=O)(=O)N1CCCn2cnc(COc3cccnc3)c2C1 | - | 0.9756% | 5.66% | 13.7%
Cc1ccc(CN2CC[C@H](c3nc4cccc(C(N)=O)c4[nH]3)C2)cc1 | 9.992% | -6.09% | 27.03% | 7.102%
COCC1CC2(CCN(Cc3ccc(OC)cc3)CC2)CN1C(C)C (centres unmarked) | -4.506% | 3.732% | 3.922% | -2.273%
Cc1cc(N(Cc2ccccc2F)C2CC2)n2nc(C(F)(F)F)nc2n1 | 2.562% | -4.615% | 25.71% | -153.4%
CC(C)N(C)C(=O)c1ccc(CNc2ccncc2Cl)cc1 | 2.314% | 1.152% | 14.81% | -10.99%
Cc1cc(N2CCC(NS(C)(=O)=O)CC2)nc(C(C)C)n1 | 1.929% | 1.58% | 15.22% | -7.226%
O=C(O)c1cc2c(nc1-c1ccncc1)CCN(Cc1ccoc1)CC2 | -2.551% | 2.538% | 8.824% | -33.68%
CC(C)N1CCO[C@H]2CN(S(=O)(=O)c3ccc(C#N)cc3)C[C@H]21 | -2.186% | 3.333% | 11.11% | -25.88%
CCOC(=O)NC(CNC(=O)c1ncccn1)CC(C)C (centres unmarked) | -0.1676% | 5.727% | 18.87% | -13.11%
Cc1cnn(CC2CN(Cc3nc(-c4ccsc4)no3)CCO2)c1 (centres unmarked) | -4.708% | 2.408% | 7.143% | -2.563%
CCc1nc(CC(=O)NCC2(C(N)=O)CCOCC2)cs1 | -3.631% | -1.408% | 25.64% | -37.63%
CN1CC(=O)N(c2ccsc2)CC12CCN(C(=O)c1cccn1C)C2 (centres unmarked) | -2.063% | 1.42% | 4.587% | 6.499%
Cc1nnn2c1COCC(CNC(=O)c1ccc3[nH]ccc3c1)C2 (centres unmarked) | 0.9114% | -6.364% | 19.81% | -23.76%
CS(=O)(=O)N[C@@H]1COC[C@@H]2CN(Cc3ccoc3)C[C@@H]21 | -4.167% | 2.836% | 6.944% | -11.99%
COc1ccc(CCN(C)C(=O)c2cc(C(C)=O)c[nH]2)cc1OC | 2.761% | 3.694% | 8.29% | -30.62%
O=C(c1cc2c(s1)CCCC2)N1CCc2nc(C3CCCN3)ncc2C1 (centres unmarked) | 6.783% | 2.19% | 5.263% | -16.78%
Cc1cc(O)cc(=O)n1CCCC(=O)Nc1n[nH]c2cccc(F)c12 | 3.226% | 1.211% | 19.57% | -5.015%
CCOC(=O)[C@]12CCCN(Cc3nccs3)C[C@H]1CN(CC(C)C)C2 | 0.07969% | -15.37% | 11.5% | -5.86%
Cc1cnc(-c2nc(C3CCN(C(=O)Cc4ccsc4)CC3)no2)cn1 | -3.42% | -4.866% | 30.53% | 0.7202%
O=S(=O)(CCCc1ccccc1)Cc1nnnn1C1CC1 | 6.328% | -6.876% | 14.91% | -17.91%
CCNC(=O)CN1CCc2c(Br)ccc(F)c2C1 | -1.943% | 1.656% | 5.181% | -44.89%
CC(C)c1ncc2c(n1)CN(Cc1nc(-c3ccccn3)no1)CC2 | -4.856% | 10.82% and 24.12% | 14.29% | -18.53%
CN(C)C(CNC(=O)NCc1ccco1)c1cccs1 (centres unmarked) | 1.135% | - | 17.14% | -48.19%
NC(=O)NCC(=O)N1C[C@H]2CC[C@@H]1CN(Cc1ccccc1)C2 | 1.924% | -11.3% | 17.31% | -3.392%
CC(C(=O)Nc1cccc(Cl)c1)N1CCN(Cc2ncc[nH]2)CC1 (centres unmarked) | 3.712% | 1.908% | 21.95% | -9.317%
COc1ccc(C(=O)C2CCCN(c3cc(N)ncn3)C2)c(C)c1 (centres unmarked) | 2.205% | 1.023% | 31.15% | -24.93%
CCO[C@@H]1CO[C@@]2(CCCN(S(=O)(=O)c3ccccc3)C2)C1 | 1.91% | 0.6085% | 4.587% | -3.897%
CCCN1CCC(NCc2cccc(CN3CCOC(C)C3)c2)CC1 (centres unmarked) | -6.754% | 2.92% | -8.889% | 5.984%

Once more, the final 3:

COc1ccc(C(=O)C2CCCN(c3cc(N)ncn3)C2)c(C)c1 (centres unmarked) gave MtTrpRS: 2.205%; CoaBC: 1.023%; LiHisRS: 31.15%; Pks13 thioesterase: -24.93%.
CCO[C@@H]1CO[C@@]2(CCCN(S(=O)(=O)c3ccccc3)C2)C1 gave MtTrpRS: 1.91%; CoaBC: 0.6085%; LiHisRS: 4.587%; Pks13 thioesterase: -3.897%.
CCCN1CCC(NCc2cccc(CN3CCOC(C)C3)c2)CC1 (centres unmarked) gave MtTrpRS: -6.754%; CoaBC: 2.92%; LiHisRS: -8.889%; Pks13 thioesterase: 5.984%.